Data from patent publication US20190135888A1.
These are yes or no findings as the source states them, for the method shown. Some results given as binding are weak or reduced against the parent protein; the word gives no strength.

Amino acid sequences for entries named in this document (tags omitted). Residues count along the entry.
UniProt P47871, residues 26-136: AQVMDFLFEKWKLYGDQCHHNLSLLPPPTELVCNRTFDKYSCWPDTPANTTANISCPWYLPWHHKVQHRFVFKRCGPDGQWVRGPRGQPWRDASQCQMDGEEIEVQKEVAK

Key:
[1] = biological target: GCGR extracellular domain (GCGR-ecd) (UniProt P47871); assay: microscale thermophoresis + T-jump (LED:80%, MST Power:70%), GCGR-ECD without tag and hFABP4 by the legend
[2] = biological target: GCGR extracellular domain (GCGR-ecd) (UniProt P47871); assay: microscale thermophoresis (LED:40%, MST Power:30%), GCGR-ECD with tag and hFABP4 by the legend
glucagon [3] = assay: pull-down with glucagon peptides (Gluc1-29, Gluc22-29), Western blot; the blotting antibody is not printed on the sheet
glucagon [4] = assay: microscale thermophoresis instrument, temperature jump (LED:30%, MST Power:20%), aP2 and glucagon by the legend
glucagon [5] = assay: microscale thermophoresis (LED:30%, MST Power 20%), FABP4 and glucagon by the legend
glucagon [6] = assay: pull-down (IP glucagon against IP control), immunoblot for aP2
glucagon [7] = assay: biolayer interferometry (BLItz), unlabelled aP2 on biotin-glucagon on streptavidin probes, traces with fitted lines

Row | binding [1] | binding [2] | binding (glucagon [3]) | binding (glucagon [4]) | binding (glucagon [5]) | binding (glucagon [6]) | binding (glucagon [7]) | Binder
1 | binds | binds | – | – | – | – | – | human aP2 (fatty acid-binding protein, adipocyte, FABP4/aP2, Homo sapiens) (protein) CDAFVGTWKLVSSENFDDYMKEVGVGFATRKVAGMAKPNMIISVNGDVITIKSESTFKNTEISFILGQEFDEVTADDRKVKSTITLDGGVLVHVQKWDGKSTTIKRKREDDKLVVECVMKGVTSTRVYERA
2 | – | – | binds | binds | binds | binds | binds | aP2 (recombinant aP2 of Example 1) (protein) MCDAFVGTWKLVSSENFDDYMKEVGVGFATRKVAGMAKPNMIISVNGDLVTIRSESTFKNTEISFKLGVEFDEITADDRKVKSIITLDGGALVQVQKWDGKSTTIKRKRDGDKLVVECVMKGVTSTRVYERA
